From patent US20260183275A1, “SUBSTITUTED QUINOLONE COMPOUNDS USEFUL AS INHIBITORS OF TLR9” (Bristol-Myers Squibb Company, priority 2022, published 2026)

Amino acid sequences for entries named in this document (tags omitted). Residues count along the entry.
UniProt Q9NR96, 26-1032 limits assumed: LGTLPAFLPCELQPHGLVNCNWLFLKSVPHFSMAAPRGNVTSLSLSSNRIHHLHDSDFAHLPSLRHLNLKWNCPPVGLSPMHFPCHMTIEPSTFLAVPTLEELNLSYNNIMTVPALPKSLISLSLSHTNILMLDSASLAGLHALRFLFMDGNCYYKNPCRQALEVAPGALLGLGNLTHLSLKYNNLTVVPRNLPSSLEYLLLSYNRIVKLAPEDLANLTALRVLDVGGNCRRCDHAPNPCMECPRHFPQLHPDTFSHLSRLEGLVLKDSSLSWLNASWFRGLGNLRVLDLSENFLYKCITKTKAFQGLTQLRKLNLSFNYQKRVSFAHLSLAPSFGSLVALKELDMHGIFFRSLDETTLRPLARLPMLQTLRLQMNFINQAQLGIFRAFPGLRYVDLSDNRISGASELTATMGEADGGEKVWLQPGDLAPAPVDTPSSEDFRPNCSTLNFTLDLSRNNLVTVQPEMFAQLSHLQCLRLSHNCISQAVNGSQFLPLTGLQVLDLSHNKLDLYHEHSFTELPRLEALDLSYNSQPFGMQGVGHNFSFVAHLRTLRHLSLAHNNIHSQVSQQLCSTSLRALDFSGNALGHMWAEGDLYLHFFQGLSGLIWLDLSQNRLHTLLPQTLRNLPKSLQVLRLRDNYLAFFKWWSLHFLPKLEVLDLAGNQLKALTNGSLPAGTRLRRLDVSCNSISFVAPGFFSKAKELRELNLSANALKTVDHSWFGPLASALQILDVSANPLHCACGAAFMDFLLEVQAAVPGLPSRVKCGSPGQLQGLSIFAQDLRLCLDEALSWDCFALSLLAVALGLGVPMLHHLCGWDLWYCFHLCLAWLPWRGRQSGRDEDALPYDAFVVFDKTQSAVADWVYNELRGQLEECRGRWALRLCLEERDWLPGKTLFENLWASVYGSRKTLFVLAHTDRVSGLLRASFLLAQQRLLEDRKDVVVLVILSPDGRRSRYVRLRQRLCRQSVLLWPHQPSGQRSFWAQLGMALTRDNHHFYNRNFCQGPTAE
UniProt Q9NR97, 27-1041 limits assumed: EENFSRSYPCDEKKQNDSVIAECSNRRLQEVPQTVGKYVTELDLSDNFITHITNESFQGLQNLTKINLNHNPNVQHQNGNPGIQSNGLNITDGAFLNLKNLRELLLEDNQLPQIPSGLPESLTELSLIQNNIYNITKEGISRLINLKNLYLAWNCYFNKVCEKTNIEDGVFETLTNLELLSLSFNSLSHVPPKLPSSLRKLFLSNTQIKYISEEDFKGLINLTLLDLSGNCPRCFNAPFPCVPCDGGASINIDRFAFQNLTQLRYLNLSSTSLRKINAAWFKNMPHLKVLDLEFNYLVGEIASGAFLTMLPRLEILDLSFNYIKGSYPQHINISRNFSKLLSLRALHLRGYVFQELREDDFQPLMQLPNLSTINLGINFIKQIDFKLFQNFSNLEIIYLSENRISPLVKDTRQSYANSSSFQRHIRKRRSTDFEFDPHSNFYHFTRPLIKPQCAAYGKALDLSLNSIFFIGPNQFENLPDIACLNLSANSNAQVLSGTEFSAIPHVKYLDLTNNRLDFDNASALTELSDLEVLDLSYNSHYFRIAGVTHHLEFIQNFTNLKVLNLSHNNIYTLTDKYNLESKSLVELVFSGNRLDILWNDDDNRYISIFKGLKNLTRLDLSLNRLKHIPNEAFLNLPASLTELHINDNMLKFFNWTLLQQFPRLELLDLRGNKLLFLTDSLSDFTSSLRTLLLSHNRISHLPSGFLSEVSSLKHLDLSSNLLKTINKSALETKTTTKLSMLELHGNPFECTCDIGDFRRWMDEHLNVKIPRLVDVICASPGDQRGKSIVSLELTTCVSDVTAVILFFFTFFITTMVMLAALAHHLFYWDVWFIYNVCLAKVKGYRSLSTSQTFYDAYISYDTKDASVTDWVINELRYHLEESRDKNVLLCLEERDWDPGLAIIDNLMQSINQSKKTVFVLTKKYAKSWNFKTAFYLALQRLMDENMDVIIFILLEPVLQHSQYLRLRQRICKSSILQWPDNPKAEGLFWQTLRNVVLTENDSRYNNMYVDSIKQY
UniProt Q9NYK1, 27-1049 limits assumed: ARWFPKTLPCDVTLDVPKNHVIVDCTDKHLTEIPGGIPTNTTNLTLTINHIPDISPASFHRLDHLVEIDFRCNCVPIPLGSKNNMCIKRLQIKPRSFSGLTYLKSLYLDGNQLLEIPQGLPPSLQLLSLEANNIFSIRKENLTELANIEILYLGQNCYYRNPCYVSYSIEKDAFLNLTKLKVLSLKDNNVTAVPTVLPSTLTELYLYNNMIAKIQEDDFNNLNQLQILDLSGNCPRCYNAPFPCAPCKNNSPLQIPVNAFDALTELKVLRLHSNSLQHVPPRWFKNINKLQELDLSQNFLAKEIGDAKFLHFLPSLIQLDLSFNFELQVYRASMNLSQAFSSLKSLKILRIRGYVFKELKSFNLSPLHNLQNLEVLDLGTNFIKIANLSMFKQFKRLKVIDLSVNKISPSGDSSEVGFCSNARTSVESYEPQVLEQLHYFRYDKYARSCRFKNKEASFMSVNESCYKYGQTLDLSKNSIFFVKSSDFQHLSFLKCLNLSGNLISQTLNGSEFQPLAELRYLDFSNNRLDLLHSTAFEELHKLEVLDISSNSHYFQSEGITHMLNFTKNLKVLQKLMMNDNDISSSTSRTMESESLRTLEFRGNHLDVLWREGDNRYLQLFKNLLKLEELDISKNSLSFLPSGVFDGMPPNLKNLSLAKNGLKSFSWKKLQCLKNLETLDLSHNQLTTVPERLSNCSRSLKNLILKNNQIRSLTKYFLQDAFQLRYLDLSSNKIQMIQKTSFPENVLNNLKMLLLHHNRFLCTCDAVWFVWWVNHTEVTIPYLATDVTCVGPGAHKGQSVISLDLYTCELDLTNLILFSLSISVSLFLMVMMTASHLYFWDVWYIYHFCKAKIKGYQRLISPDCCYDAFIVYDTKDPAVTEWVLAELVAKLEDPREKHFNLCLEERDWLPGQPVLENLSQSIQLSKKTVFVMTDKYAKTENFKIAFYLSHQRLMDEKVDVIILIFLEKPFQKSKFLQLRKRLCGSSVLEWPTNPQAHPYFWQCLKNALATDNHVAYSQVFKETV

Key:
[1] = biological target: human TLR9 (Homo sapiens, UniProt Q9NR96); test: TLR9 inhibition reporter assay (HEK-Blue cells, SEAP reporter); conditions: read-out: TLR9 IC50; HEK-Blue cells overexpressing human TLR9; stimulated with ODN2006 5 nM; SEAP read after 22 hour; dose range 0.05 nM-50 μM
Procedure: (§1) HEK-Blue™-cells (Invivogen) overexpressing human TLR7, TLR8 or TLR9 receptors were used for screening inhibitors of these receptors using an inducible SEAP (secreted embryonic alkaline phosphatase) reporter gene under the control of the IFN-β minimal promoter fused to five NF-κB and AP-1-binding sites. Briefly, cells are seeded into Greiner 384 well plates (15000 cells per well for TLR7, 20,000 for TLR8 and 25,000 for TLR9) and then treated with test compounds in DMSO to yield a final dose response concentration range of 0.05 nM-50 μM. After a 30 minute compound pre-treatment at room temperature, the cells are then stimulated with a TLR7 ligand (gardiquimod at a final concentration of 7.5 μM), TLR8 ligand (R848 at a final concentration of 15.9 μM) or TLR9 ligand (ODN2006 at a final concentration of 5 nM) to activate NF-κB and AP-1 which induce the production of SEAP. After a 22 hour incubation at 37° C., 5% CO2, SEAP levels are determined with the addition of HEK-Blue™ Detection reagent (Invivogen), a cell culture medium that allows for detection of SEAP, according to manufacturer's specifications. The percent inhibition is determined as the % reduction in the HEK-Blue signal present in wells treated with agonist plus DMSO alone compared to wells treated with a known inhibitor.

[2] = biological target: human TLR8 (Homo sapiens, UniProt Q9NR97); test: TLR8 inhibition reporter assay (HEK-Blue cells, SEAP reporter); conditions: read-out: TLR8 IC50; HEK-Blue cells overexpressing human TLR8; stimulated with R848 15.9 μM; SEAP read after 22 hour; dose range 0.05 nM-50 μM
Procedure: as §1

[3] = biological target: human TLR7 (Homo sapiens, UniProt Q9NYK1); test: TLR7 inhibition reporter assay (HEK-Blue cells, SEAP reporter); conditions: read-out: TLR7 IC50; HEK-Blue cells overexpressing human TLR7; stimulated with gardiquimod 7.5 μM; SEAP read after 22 hour; dose range 0.05 nM-50 μM
Procedure: as §1

Row | SMILES | IC50 [1] | IC50 [2] | IC50 [3]
1 | CC(C)N1CCN(c2ccc(-c3ccc4c(c3)cc(-c3ccc(NC(=O)C(C)(C)O)cc3)c(=O)n4C)cc2)CC1 | 0.652 µM | – | –
2 | CC(C)N1CCN(c2ccc(-c3ccc4[nH]c(=O)c(-c5ccc(NS(C)(=O)=O)cc5)cc4c3)cc2)CC1 | 0.171 µM | ≥ 50 µM | 17.5 µM

The structures given here were assigned with low confidence; some may be wrong.
